Test results taken from PubChem BioAssay AID2551 (National Center for Advancing Translational Sciences (NCATS), 2010).
Out of some 310,000 compounds screened, about 17,000 (5.5%) were called active. Inconclusive means that the source gave no clear call. Such entries were picked first, then a sample of the others. Calls follow the shape of the dose curve; as a rule, active = well fitted inhibition curve with a large enough effect; inconclusive = small, poorly fitted or top-dose-only effect, or effect the other way; inactive = no such curve, though single readings can be large or run the other way. Potencies of inconclusive entries are doubtful fits and often do not repeat.
Also: nearly all actives have a fitted effect of over 60% in size.
Potency is read from the fitted curve at half-maximal effect.

Sequences of proteins named here, by UniProt entry; tags and fusion partners are left off. A change or cut given only in a name is not applied to a line headed by its entry.
UniProt P51450: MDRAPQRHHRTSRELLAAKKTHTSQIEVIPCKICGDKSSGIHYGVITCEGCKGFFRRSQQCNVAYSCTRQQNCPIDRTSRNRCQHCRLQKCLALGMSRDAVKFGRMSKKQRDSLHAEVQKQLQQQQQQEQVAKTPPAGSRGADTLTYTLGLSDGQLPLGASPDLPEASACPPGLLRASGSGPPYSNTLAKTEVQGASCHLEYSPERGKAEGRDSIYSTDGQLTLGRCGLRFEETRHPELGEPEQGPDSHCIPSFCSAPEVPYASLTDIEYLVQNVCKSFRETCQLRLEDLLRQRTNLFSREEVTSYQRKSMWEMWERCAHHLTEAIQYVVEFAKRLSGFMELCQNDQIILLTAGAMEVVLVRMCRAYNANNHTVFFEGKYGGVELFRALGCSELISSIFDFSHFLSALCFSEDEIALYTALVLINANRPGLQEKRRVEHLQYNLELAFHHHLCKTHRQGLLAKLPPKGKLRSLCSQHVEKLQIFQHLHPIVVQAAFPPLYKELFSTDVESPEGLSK

These compounds were tested against Nuclear receptor ROR-gamma (Mus musculus) (UniProt P51450) (assay: qHTS for inhibitors of ROR gamma transcriptional activity). Details: Drosophila S2 Gal4-RORgamma UAS-luciferase reporter, 20 h; series mostly up to 53.6 µM.
In short: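 Luciferase reporter read in Schneider cells carrying Gal4-RORγ (mouse) and UAS-Photinus luciferase; cells given compound 1 h before 700 uM copper sulfate induction, then incubated 20 h at ambient temperature.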
With NC(=O)NC(=O)CC1S/C(=N/N=C/c2ccccc2)NC1=O (configuration not stated) the Potency was “inactive”. For COc1ccc(Cl)cc1NC(=S)Nc1ccccc1C, the Potency was active: 11.2 µM. Fc1ccccc1C1c2[nH]c3ccccc3c2CCN1Cc1cccn1-c1ncccn1 (configuration not stated) was tested, and the Potency was inconclusive: 35.5 µM [activator, single point]. COc1ccccc1/C=C/C(=O)NC(=S)Nc1ccccn1 was tested, and the Potency was active: 4.47 µM. With CCOc1ccc(/C(O)=C2/C(=O)C(=O)N(CCCn3ccnc3)C2c2cccs2)cc1Cl (configuration not stated) the Potency was inconclusive: 35.5 µM [inhibitor, single point]. In the case of Cc1ccccc1C1C2=C(Nc3[nH]n(-c4ccccc4)c(=O)c31)c1ccccc1C2=O (configuration not stated), the Potency is reported as inconclusive: 3.98 µM [activator, single point]. NC(=O)CC[C@@H]1NC(=O)C(Cc2ccc(O)cc2)NC(=O)c2cc([N+](=O)[O-])cc(F)c2NCCC[C@@H](C(N)=O)NC1=O (some centres not stated) was tested, and the Potency was inconclusive: 6.31 µM [activator, partial curve]. COC(=O)c1ccc(N/C(=N/S(=O)(=O)c2ccccc2)c2ccccc2)cc1 was tested, and the Potency was inconclusive: 17.8 µM [activator, partial curve]. With O=S1(=O)N=C(N=Nc2c(O)[nH]c3ccccc23)c2ccccc21 the Potency was inconclusive: 22.4 µM [inhibitor, single point]. For CCOC(=O)C1C(=O)NC(c2ccccc2)=NC1c1ccc(Br)cc1 (configuration not stated), the Potency was “inactive”. In the case of O=c1[nH]c(-c2ccccc2)cs1, the Potency is reported as “inactive”. With O=C(Nc1cccc(S(=O)(=O)N2CCOCC2)c1)C1CCCN(C(=O)c2ccc(Cl)cc2)C1 (configuration not stated) the Potency was inconclusive: 11.2 µM [activator, partial curve, poor fit]. CCc1ccc(NC(=S)Nc2ccc(S(=O)(=O)Nc3ncccn3)cc2)cc1 was tested, and the Potency was inconclusive: 15.8 µM [inhibitor, single point]. For COc1ccc(NC(=O)c2c(N)no[n+]2[O-])cc1, the Potency was “inactive”. With c1c2c(cc3sc(N4CCCCC4)nc13)OCCO2 the Potency was active: 0.794 µM. For Cc1cc(C)nc(N/N=C/C2=C(N3CCOCC3)C(=C\c3ccc(Cl)cc3)/CC2)n1, the Potency was active: 10 µM. In the case of O=C(c1ccco1)N1CCN(c2nc(C3CC3)nc3c2nnn3Cc2ccccc2Cl)CC1, the Potency is reported as inconclusive: 31.6 µM [activator, single point]. For Cc1ccc(-c2nc3cc(N)ccc3o2)cc1, the Potency was inconclusive: 35.5 µM [inhibitor, single point]. With CN1CCN(c2ncc3nc(-c4cccs4)c(=O)n(C[C@H]4CCCO4)c3n2)CC1 the Potency was “inactive”. With O=C(c1cc(COc2ccc(F)cc2Cl)on1)N1CCCCCCC1 the Potency was inconclusive: 12.6 µM [activator, single point]. With O=C(NCc1cccc(C(F)(F)F)c1)c1cccc(Cl)c1Cl the Potency was inconclusive: 2.82 µM [activator, single point]. For C[C@H](NC(=O)C1CCN(S(=O)(=O)c2ccccc2)CC1)C(=O)NCc1ccc(Cl)cc1Cl, the Potency was inconclusive: 12.6 µM [activator, partial curve]. For COc1ccc(N2CCN(CCNC(=O)c3ccc4c(c3)[nH]c(=S)n3c5ccccc5nc43)CC2)cc1, the Potency was active: 6.31 µM. With O=S(=O)(Nc1nc2ccccc2nc1Nc1ccc2c(c1)OCO2)c1ccc(F)cc1 the Potency was inconclusive: 2.82 µM [activator, full curve]. With CCOC(=O)c1cc(NC(=O)N(CC)C2CCCCC2)c(C)nc1C the Potency was inconclusive: 2.51 µM [activator, full curve, poor fit]. With Cn1c(=S)[nH]c2scc(-c3cccs3)c2c1=O the Potency was active: 0.794 µM. COc1ccccc1N1CCN(C(=O)C2CCCCN2S(=O)(=O)c2ccc(C)cc2)CC1 (configuration not stated) was tested, and the Potency was “inactive”. For COc1cc(=O)n(C)c2cc(N(C)C)ccc12, the Potency was “inactive”. With CC(C)c1ccc(NC(=S)NNC(=O)c2cccs2)cc1 the Potency was inconclusive: 10 µM [inhibitor, partial curve]. For CCCCC1(C)Cc2ccccc2C(=S)N1 (configuration not stated), the Potency was active: 1 µM. For Cc1ccn2cc(-c3nonc3C)cc2c1, the Potency was inconclusive: 35.5 µM [inhibitor, single point]. With NS(=O)(=O)c1ccc(CCNC(=O)CN2CCN(c3cccc(Cl)c3)CC2)cc1 the Potency was inconclusive: 3.16 µM [activator, single point]. For CC1CCN(C(=S)c2cn(Cc3ccc(F)cc3)c3ccccc23)CC1, the Potency was active: 5.01 µM. In the case of CC1CCCN(C(=S)Nc2ccc(Nc3ccccc3)cc2)C1 (configuration not stated), the Potency is reported as active: 11.2 µM. With COc1ccc(CN2CCC(CO)(Cc3ccccc3)CC2)cc1Cn1cccn1 the Potency was inconclusive: 35.5 µM [inhibitor, single point]. For Cc1ccc(OCCNC(=O)Cc2ccc(S(=O)(=O)N3CCOCC3)s2)cc1, the Potency was inconclusive: 35.5 µM [activator, single point]. CC(C)NC(=S)N/N=C/C1=CCC2CC1C2(C)C (configuration not stated) was tested, and the Potency was active: 0.794 µM. In the case of CCOc1ccc(/C(O)=C2/C(=O)C(=O)N(c3cc(C)on3)C2c2ccc(C(=O)OC)cc2)cc1 (configuration not stated), the Potency is reported as inconclusive: 14.1 µM [activator, partial curve]. O=C(N/N=C/c1cn(Cc2ccccc2)c2ccccc12)c1ccncc1 was tested, and the Potency was active: 2.82 µM. CNC(=S)NNC(=O)c1cc(C(C)(C)C)nn1Cc1ccc(F)cc1 was tested, and the Potency was inconclusive: 0.224 µM [inhibitor, full curve]. In the case of COc1cccc2cc(C(C)N(CCCN3CCOCC3)C(=S)Nc3cccc(C)c3C)oc12 (configuration not stated), the Potency is reported as active: 11.2 µM. For CCn1c(/C=C/c2ccc([N+](=O)[O-])o2)nc2ccccc2c1=O, the Potency was active: 7.94 µM. For COc1cc(CNC2CCCC2)cc(Cl)c1OCc1ccc(F)cc1, the Potency was inconclusive: 3.55 µM [inhibitor, full curve]. With CCOc1ccc(CNC(=O)CCS(=O)(=O)Cc2ccccc2C)cc1OC the Potency was “inactive”. In the case of CSc1nnc(N2C(=O)C(O)=C(C(=O)c3ccco3)C2c2cccc(Cl)c2)s1 (configuration not stated), the Potency is reported as “inactive”. With COc1cccc(OC)c1C(=O)OCCCOC(=O)c1c(OC)cccc1OC the Potency was “inactive”. CCN(CC)c1ccc(NC(=O)COc2ccc(C#N)cc2)cc1S(=O)(=O)Nc1ccc(OC)cc1 was tested, and the Potency was “inactive”. For CC(C)Cc1nc(N2CCN(C(=O)C(C)C)CC2)c(C#N)c2c1CCC2, the Potency was active: 1.41 µM. For Cc1cccc(N2CCN(C(=O)c3cccc(N4C(=O)C5CC=CC(C)C5C4=O)c3)CC2)c1C (configuration not stated), the Potency was inconclusive: 35.5 µM [activator, single point]. For COc1nnc(-c2ccc(C)c(S(=O)(=O)NC(C)C)c2)c2ccccc12, the Potency was “inactive”. With Cc1cc(NC(=O)c2ccc(C)c([N+](=O)[O-])c2)no1 the Potency was active: 6.31 µM. For Cc1cccc2nc(CSc3ccccc3C(=O)O)cn12, the Potency was inconclusive: 35.5 µM [inhibitor, single point]. COc1ccc(CN2CCN(Cc3ccc(C)cc3)CC2)c(OC)c1 was tested, and the Potency was “inactive”. For O=C(Nc1ccccc1C(=O)O)c1ccc2ccccc2n1, the Potency was inconclusive: 22.4 µM [inhibitor, single point]. N#C/C(=C\c1ccc(OCc2ccccc2)cc1)C(=O)Nc1nc2c(s1)CCN(Cc1ccccc1)C2 was tested, and the Potency was inconclusive: 35.5 µM [activator, single point]. For CC1(C)CC(=O)c2cc(OCC(=O)N3CCOCC3)ccc2O1, the Potency was “inactive”. For COC(=O)c1cc(C(=O)OC)cc(N2C(=O)CC(Sc3nc(C)cc(C)n3)C2=O)c1 (configuration not stated), the Potency was inconclusive: 35.5 µM [inhibitor, single point]. With CS(=O)(=O)Nc1cccc(-c2ccc3ncnc(Nc4ccc(F)cc4)c3c2)c1 the Potency was inconclusive: 11.2 µM [activator, partial curve]. With C=CCn1c(NC(=O)c2ccccc2Cl)c(C#N)c2nc3ccccc3nc21 the Potency was inconclusive: 35.5 µM [inhibitor, single point]. With O=C(Nc1ccc(F)cc1)C(Sc1nc2ccccc2[nH]1)c1ccccc1 (configuration not stated) the Potency was inconclusive: 3.98 µM [inhibitor, single point]. CN1C2C=C3C(C#N)=C(N)C(C#N)(C#N)C(c4ccc(Br)cc4)C3C1CC2 (configuration not stated) was tested, and the Potency was inconclusive: 2.82 µM [inhibitor, single point]. With CC(C)(CO)[C@@H](O)C(=O)NCCC(=O)NCCSSCCNC(=O)CCNC(=O)[C@H](O)C(C)(C)CO the Potency was “inactive”. O=C(Nc1ccc2sccc2c1)c1ccc(Cl)s1 was tested, and the Potency was inconclusive: 1.58 µM [activator, partial curve, poor fit]. In the case of COc1cc(C(O)c2nc3ccccc3s2)cc(OC)c1OC (configuration not stated), the Potency is reported as inconclusive: 35.5 µM [inhibitor, single point]. For O=[N+]([O-])c1ccc(C(O)CN=Cc2ccc(O)cc2O)cc1 (configuration not stated), the Potency was inconclusive: 35.5 µM [inhibitor, single point]. CC(C)n1c(=S)[nH]c2ccccc2c1=O was tested, and the Potency was inconclusive: 5.62 µM [inhibitor, single point]. In the case of CC1(C)ON(C2CCCCC2)[C@H]2c3nc4ccccc4n3C[C@H]21, the Potency is reported as active: 14.1 µM. Cc1ccc(C(=S)N2CCCCCC2)cc1 was tested, and the Potency was inconclusive: 10 µM [inhibitor, partial curve, poor fit]. For Cc1ccc(S(=O)(=O)NCC2CCC(C(=O)NCc3ccc4c(c3)OCO4)CC2)cc1 (configuration not stated), the Potency was “inactive”. For Cc1cccc(-c2nnc(SCc3nc4ccccc4[nH]3)n2Cc2ccco2)c1, the Potency was “inactive”. In the case of CC(C)Cc1ccc(S(=O)(=O)Nc2ccc3[nH]c(=O)[nH]c3c2)cc1, the Potency is reported as inconclusive: 35.5 µM [activator, single point]. With CC(C)CNC(=S)NNC(=O)c1nn(C)cc1Cl the Potency was inconclusive: 35.5 µM [inhibitor, single point].
